# Some of the results follow.
# By UniProt entry, the sequences of proteins in these tests, tags left out. Where a name states a change or a piece, a line headed by the entry shows the natural chain unless it says otherwise.
# UniProt P57060: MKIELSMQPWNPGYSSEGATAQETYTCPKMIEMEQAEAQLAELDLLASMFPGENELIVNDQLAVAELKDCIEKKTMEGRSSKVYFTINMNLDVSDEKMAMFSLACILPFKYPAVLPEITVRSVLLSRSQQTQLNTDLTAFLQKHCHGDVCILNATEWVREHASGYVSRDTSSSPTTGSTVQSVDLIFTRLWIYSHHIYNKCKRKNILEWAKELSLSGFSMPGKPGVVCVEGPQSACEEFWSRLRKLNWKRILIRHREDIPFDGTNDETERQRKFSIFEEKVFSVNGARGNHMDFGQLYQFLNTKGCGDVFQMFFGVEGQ
# UniProt O75446: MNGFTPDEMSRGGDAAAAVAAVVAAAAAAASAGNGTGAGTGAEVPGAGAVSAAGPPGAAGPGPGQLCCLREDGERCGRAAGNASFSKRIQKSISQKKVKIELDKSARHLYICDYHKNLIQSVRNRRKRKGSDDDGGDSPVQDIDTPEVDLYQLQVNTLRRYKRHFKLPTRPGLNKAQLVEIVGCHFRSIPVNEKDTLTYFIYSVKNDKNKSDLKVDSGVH
# UniProt Q96NL6: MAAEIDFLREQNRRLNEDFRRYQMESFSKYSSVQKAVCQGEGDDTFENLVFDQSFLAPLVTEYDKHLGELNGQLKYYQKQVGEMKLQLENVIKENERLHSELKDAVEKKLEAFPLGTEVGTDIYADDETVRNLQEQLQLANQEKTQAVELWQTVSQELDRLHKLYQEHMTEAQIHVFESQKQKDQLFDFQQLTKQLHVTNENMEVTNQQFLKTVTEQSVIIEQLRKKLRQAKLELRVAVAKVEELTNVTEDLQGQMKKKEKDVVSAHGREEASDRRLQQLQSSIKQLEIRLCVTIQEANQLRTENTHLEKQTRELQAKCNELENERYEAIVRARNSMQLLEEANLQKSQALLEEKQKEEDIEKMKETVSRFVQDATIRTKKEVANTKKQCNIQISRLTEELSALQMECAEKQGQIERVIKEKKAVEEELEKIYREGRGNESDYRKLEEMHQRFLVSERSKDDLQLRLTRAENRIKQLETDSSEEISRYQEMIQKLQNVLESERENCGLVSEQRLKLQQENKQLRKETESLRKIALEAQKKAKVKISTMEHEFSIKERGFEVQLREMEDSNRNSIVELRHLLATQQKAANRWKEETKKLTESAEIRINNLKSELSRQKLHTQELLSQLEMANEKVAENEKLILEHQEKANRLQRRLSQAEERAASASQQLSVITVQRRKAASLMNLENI
# UniProt O15127: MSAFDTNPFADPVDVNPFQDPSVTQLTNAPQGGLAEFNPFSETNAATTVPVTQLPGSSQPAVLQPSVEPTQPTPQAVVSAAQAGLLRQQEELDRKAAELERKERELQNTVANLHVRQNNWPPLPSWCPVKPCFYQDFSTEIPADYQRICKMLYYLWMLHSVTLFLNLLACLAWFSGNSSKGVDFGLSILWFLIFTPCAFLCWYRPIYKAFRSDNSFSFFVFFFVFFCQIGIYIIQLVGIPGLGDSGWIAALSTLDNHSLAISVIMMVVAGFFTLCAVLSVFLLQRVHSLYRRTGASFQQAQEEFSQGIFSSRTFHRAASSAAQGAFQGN
# UniProt Q7L4I2: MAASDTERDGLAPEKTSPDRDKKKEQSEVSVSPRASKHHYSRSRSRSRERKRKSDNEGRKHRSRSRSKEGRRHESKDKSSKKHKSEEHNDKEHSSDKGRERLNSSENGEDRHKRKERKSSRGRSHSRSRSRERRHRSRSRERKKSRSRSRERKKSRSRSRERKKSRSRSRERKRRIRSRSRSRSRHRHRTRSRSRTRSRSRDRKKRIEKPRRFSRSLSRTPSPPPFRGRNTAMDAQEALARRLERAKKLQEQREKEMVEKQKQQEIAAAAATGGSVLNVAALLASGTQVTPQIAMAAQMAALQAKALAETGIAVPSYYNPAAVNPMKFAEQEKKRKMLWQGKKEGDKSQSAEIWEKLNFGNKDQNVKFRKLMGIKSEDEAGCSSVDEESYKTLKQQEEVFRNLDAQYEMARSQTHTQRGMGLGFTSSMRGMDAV
# UniProt Q5PRF9: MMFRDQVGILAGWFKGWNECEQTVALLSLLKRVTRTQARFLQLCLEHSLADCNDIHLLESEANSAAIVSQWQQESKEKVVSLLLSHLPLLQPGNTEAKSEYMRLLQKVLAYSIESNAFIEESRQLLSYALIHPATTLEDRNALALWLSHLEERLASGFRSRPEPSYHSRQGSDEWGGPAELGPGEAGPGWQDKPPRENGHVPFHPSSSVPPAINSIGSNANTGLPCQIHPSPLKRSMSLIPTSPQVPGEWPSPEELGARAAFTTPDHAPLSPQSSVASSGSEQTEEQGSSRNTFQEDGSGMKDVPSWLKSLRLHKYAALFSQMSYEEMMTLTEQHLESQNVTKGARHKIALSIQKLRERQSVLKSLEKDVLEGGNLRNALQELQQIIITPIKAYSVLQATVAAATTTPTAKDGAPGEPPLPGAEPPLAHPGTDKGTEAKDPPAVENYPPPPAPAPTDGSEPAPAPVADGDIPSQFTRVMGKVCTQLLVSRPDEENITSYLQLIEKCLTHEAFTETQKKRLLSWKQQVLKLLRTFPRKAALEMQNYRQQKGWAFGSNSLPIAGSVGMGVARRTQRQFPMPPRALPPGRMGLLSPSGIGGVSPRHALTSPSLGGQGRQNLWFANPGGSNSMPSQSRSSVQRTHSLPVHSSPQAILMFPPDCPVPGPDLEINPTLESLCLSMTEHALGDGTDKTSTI
# UniProt O00560: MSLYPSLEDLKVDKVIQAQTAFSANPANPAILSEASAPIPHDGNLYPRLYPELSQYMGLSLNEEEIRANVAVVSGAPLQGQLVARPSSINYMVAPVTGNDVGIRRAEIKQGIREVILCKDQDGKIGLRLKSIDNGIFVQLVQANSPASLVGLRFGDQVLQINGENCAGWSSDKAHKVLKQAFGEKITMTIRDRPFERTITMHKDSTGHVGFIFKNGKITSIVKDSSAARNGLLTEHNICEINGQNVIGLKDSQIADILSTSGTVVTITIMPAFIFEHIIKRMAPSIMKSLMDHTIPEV
# UniProt Q99643: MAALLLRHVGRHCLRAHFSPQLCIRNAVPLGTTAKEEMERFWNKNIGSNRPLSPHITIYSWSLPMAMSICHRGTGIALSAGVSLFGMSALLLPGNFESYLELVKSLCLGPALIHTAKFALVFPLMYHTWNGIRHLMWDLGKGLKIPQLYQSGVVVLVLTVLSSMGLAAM
# UniProt O95486: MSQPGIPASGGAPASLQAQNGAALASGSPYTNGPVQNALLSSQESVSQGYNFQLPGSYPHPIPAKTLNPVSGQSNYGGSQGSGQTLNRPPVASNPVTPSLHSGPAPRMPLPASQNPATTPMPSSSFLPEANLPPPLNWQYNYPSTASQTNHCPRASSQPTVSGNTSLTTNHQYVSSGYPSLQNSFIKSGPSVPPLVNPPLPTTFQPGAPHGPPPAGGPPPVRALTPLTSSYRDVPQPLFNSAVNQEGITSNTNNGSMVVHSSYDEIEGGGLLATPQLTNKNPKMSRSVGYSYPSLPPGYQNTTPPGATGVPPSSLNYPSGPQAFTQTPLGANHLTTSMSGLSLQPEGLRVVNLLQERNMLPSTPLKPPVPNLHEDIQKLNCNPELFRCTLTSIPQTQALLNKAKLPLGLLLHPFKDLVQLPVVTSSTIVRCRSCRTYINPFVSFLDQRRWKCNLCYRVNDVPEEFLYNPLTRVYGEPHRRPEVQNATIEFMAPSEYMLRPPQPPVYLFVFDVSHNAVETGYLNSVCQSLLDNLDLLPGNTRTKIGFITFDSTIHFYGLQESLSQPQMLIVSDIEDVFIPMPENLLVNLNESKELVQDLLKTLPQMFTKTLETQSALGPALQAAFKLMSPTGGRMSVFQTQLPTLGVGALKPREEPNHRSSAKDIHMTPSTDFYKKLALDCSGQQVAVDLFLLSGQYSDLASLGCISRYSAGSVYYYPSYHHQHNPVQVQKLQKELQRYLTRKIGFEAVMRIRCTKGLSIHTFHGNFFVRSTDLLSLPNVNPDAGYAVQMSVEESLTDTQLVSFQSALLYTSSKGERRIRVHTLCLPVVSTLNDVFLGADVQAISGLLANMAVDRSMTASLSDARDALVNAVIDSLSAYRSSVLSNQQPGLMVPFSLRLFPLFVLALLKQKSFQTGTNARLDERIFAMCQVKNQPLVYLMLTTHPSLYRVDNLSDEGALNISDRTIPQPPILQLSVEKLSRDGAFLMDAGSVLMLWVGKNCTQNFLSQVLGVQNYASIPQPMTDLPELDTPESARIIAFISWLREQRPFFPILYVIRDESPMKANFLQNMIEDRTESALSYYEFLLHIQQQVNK
# UniProt Q5JTH9: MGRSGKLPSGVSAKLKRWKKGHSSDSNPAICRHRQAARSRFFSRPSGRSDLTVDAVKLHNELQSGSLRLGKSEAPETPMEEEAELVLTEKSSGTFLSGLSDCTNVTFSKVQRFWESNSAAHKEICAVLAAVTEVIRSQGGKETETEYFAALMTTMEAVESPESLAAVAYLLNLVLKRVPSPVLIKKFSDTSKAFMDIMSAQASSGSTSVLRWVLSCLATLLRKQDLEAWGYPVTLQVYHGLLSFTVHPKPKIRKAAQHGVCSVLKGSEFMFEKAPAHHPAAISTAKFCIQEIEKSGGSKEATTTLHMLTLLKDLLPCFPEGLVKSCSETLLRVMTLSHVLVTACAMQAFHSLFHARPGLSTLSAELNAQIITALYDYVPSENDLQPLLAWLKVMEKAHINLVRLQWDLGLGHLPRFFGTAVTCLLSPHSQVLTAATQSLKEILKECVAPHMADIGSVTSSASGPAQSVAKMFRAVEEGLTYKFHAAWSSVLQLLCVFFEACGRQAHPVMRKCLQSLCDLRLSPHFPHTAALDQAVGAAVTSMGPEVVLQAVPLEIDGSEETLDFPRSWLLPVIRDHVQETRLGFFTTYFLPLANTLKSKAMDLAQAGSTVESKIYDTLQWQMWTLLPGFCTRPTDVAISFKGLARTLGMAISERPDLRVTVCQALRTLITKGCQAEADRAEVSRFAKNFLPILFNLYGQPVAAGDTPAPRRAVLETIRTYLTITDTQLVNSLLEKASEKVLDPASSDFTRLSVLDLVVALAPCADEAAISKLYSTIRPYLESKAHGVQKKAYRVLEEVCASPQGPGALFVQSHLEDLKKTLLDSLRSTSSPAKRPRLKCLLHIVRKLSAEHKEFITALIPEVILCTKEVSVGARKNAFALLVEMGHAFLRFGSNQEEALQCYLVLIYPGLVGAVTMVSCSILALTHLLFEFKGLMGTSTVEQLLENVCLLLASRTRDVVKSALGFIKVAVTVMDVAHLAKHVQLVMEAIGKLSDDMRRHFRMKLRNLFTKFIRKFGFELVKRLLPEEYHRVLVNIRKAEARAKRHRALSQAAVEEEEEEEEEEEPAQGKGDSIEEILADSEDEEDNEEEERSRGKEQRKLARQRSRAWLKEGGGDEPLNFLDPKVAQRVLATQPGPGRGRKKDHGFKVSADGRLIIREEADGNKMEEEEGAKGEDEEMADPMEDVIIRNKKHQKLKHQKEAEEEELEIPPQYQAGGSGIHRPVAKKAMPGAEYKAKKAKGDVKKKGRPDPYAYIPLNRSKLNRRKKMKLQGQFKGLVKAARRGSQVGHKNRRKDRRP
# UniProt Q01196, whole entry, looked up: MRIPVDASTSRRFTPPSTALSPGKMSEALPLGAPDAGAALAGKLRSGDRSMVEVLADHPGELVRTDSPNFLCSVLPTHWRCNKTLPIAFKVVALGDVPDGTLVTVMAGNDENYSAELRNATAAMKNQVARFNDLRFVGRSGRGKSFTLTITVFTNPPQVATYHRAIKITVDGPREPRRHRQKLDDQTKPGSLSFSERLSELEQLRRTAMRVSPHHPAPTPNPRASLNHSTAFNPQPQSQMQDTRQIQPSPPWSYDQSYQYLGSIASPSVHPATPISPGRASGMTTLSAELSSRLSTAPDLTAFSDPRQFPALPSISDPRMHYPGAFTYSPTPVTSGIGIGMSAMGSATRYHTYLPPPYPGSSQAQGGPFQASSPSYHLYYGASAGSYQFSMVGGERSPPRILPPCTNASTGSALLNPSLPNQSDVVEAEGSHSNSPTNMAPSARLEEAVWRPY
# UniProt O43819: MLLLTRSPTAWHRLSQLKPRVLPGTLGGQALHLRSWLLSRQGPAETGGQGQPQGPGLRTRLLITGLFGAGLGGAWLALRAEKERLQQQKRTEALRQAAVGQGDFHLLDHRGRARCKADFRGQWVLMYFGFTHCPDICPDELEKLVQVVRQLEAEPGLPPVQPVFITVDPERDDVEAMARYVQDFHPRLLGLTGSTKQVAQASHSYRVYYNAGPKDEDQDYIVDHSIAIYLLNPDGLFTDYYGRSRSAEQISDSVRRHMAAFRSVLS
# UniProt Q96IZ7: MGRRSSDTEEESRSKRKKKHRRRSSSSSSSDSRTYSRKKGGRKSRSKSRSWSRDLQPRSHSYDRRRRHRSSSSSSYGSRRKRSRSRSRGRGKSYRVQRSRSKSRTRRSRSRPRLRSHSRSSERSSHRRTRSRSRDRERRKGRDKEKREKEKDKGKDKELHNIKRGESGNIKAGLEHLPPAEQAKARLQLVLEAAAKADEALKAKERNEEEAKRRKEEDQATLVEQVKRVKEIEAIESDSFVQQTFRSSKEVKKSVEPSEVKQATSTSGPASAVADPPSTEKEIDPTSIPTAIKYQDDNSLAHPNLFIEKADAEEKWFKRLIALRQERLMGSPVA
# What was measured:
# Assay in all cases: log2 fold change, soluble protein after heating vs DMSO (PISA); higher = thermal stabilisation; K562 cells, 10 uM, 30 min; active = over 0.2 and 3.5 SD of the protein, either way, in both replicates (recomputed)
# [1] = compound: CN1CCN(CCOc2cc(OC3CCOCC3)c3c(Nc4c(Cl)ccc5c4OCO5)ncnc3c2)CC1 [saracatinib]
# Procedure, shortened: (§1)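 K562 cells at 2×10^6 cells/mL were given 10 μM compound for 30 min. Aliquots then went through 3 min of heating across 48°C-58°C, were pooled, and were extracted in PBS with 0.5% NP-40 at 4°C, and the supernatant after 21,000xg for 90 min was quantified by TMTpro 16plex LC-MS/MS with channel sums equalised. Thermal stability relative to control samples, from duplicates, is given as log2 fold change.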
# [2] = compound: CN1CCN(c2nc(C3=C(c4c[nH]c5ccccc45)C(=O)NC3=O)c3ccccc3n2)CC1 [sotrastaurin]
# Procedure, shortened: as §1
# [3] = compound: CNC(=O)C1=CC=CC=C1NC2=NC(=NC=C2Cl)NC3=C(C=C(C=C3)N4CCOCC4)OC
# Procedure, shortened: as §1
# [4] = compound: CNC(=O)c1ccc(Nc2ncc(C(F)(F)F)c(NCc3nccnc3N(C)S(C)(=O)=O)n2)cc1 [defactinib]
# Procedure, shortened: as §1
# [5] = compound: CNCc1ccc(-c2[nH]c3cc(F)cc4c3c2CCNC4=O)cc1 [rucaparib]
# Procedure, shortened: as §1
# [6] = compound: CNc1nc(-c2ccc3c(N)n[nH]c3c2)cc(N2C[C@@H](C(=O)NC3CCCCC3)CC[C@H]2C)n1
# Procedure, shortened: as §1
# [7] = compound: COC(=O)N[C@@H](C)CNc1nccc(-c2cn(C(C)C)nc2-c2cc(Cl)cc(NS(C)(=O)=O)c2F)n1 [encorafenib]
# Procedure, shortened: as §1
# [8] = compound: COC(=O)[C@H](CCSC)NC(=O)C1=C(C=C(C=C1)NC[C@H](CS)N)C2=CC=CC=C2
# Procedure, shortened: as §1
# [9] = compound: COC1=CC=C(C=C1)CN2C=CC3=C2C=C(C=C3)C(=O)NO
# Procedure, shortened: as §1
# [10] = compound: CON(C)C(=O)N1N=C(c2cc(F)ccc2F)S[C@@]1(CCCN)c1ccccc1 [filanesib]
# Procedure, shortened: as §1
# [11] = compound: COc1cc(C(=O)O)ccc1NC(=O)[C@@H]1N[C@@H](CC(C)(C)C)[C@](C#N)(c2ccc(Cl)cc2F)[C@H]1c1cccc(Cl)c1F [idasanutlin]
# Procedure, shortened: as §1
# [12] = compound: COc1cc2nc(-c3cc(F)ccc3O)nc(N[C@@H]3CNC[C@H]3C(C)(C)O)c2cc1OC
# Procedure, shortened: as §1
# [13] = compound: CS(=O)(=O)CCNCc1ccc(-c2ccc3ncnc(Nc4ccc(OCc5cccc(F)c5)c(Cl)c4)c3c2)o1 [lapatinib]
# Procedure, shortened: as §1
# [14] = compound: CS(=O)(=O)N1CCN(Cc2cc3nc(-c4cccc5[nH]ncc45)nc(N4CCOCC4)c3s2)CC1 [pictilisib]
# Procedure, shortened: as §1
# [15] = compound: CN1CCc2c(c3ccccc3n2Cc2ccc(C(=O)NO)cc2)C1 [Tubastatin A]
# Procedure, shortened: as §1
# [16] = compound: CO[C@H]1C[C@@H]2CC[C@@H](C)[C@@](O)(O2)C(=O)C(=O)N2CCCC[C@H]2C(=O)O[C@H]([C@H](C)C[C@@H]2CC[C@H](n3cnnn3)[C@H](OC)C2)CC(=O)[C@H](C)/C=C(\C)[C@@H](O)[C@@H](OC)C(=O)[C@H](C)C[C@H](C)/C=C/C=C/C=C/1C [zotarolimus]
# Procedure, shortened: as §1
# [17] = compound: COc1cc(Nc2ncc3c(n2)-c2ccc(Cl)cc2C(c2c(F)cccc2OC)=NC3)ccc1C(=O)O [alisertib]
# Procedure, shortened: as §1
# [18] = compound: COc1cc2ncnc(Nc3ccc(F)c(Cl)c3)c2cc1OCCCN1CCOCC1 [gefitinib]
# Procedure, shortened: as §1
# [19] = compound: COc1cccc2cc(-c3nc([C@H]4CC[C@H](C(=O)O)CC4)n4ncnc(N)c34)[nH]c12
# Procedure, shortened: as §1
# [20] = compound: CN1CC[C@H](c2c(O)cc(O)c3c(=O)cc(-c4ccccc4Cl)oc23)[C@H](O)C1 [alvocidib]
# Procedure, shortened: as §1
Target,log2 fold change [1],log2 fold change [2],log2 fold change [3],log2 fold change [4],log2 fold change [5],log2 fold change [6],log2 fold change [7],log2 fold change [8],log2 fold change [9],log2 fold change [10],log2 fold change [11],log2 fold change [12],log2 fold change [13],log2 fold change [14],log2 fold change [15],log2 fold change [16],log2 fold change [17],log2 fold change [18],log2 fold change [19],log2 fold change [20]
RWDD2B (UniProt P57060),inactive: 0.135,inactive: -0.024,inactive: -0.055,inactive: -0.108,inactive: 0.061,inactive: -0.1,inactive: 0.111,inactive: -0.283,inactive: -0.28,inactive: 0.108,inactive: -0.14,inactive: -0.028,inactive: -0.025,inactive: 0.165,,,,,,
SEC23A (UniProt Q15436),inactive: 0.133,inactive: 0.008,inactive: -0.019,inactive: -0.078,active: 0.296,inactive: 0.037,inactive: -0.171,inactive: -0.035,inactive: 0.024,inactive: 0.013,inactive: -0.026,inactive: 0.043,inactive: -0.045,inactive: 0.049,inactive: -0.008,inactive: 0.025,inactive: -0.027,inactive: 0.007,inactive: 0.01,
SAP30 (UniProt O75446),inactive: -0.018,inactive: -0.185,inactive: 0.121,inactive: -0.003,,inactive: 0.014,,inactive: 0.044,inactive: 0.089,inactive: 0.044,inactive: 0.024,inactive: -0.059,inactive: -0.035,inactive: -0.068,,inactive: 0.047,inactive: -0.015,inactive: 0.003,inactive: -0.095,
SDHAF4 (UniProt Q5VUM1),inactive: 0.139,inactive: 0.072,inactive: -0.037,,inactive: -0.067,inactive: -0.032,inactive: -0.01,,inactive: -0.072,inactive: 0.034,inactive: -0.223,inactive: -0.026,inactive: -0.154,,inactive: 0.086,inactive: -0.01,inactive: -0.073,inactive: 0.026,inactive: 0.096,
SCLT1 (UniProt Q96NL6),inactive: 0.073,inactive: -0.095,,inactive: -0.047,,inactive: 0.121,,inactive: -0.087,active: 0.433,inactive: -0.063,,,,inactive: 0.185,inactive: 0.116,inactive: 0.079,inactive: -0.205,inactive: -0.022,inactive: 0.046,
SCAMP2 (UniProt O15127),inactive: 0.084,inactive: 0.096,inactive: 0.027,inactive: -0.086,inactive: -0.321,inactive: 0.028,inactive: 0.349,inactive: 0.101,,inactive: 0.036,inactive: -0.1,inactive: -0.035,inactive: 0.009,inactive: 0.199,inactive: 0.019,inactive: 0.171,inactive: -0.087,inactive: 0.036,inactive: 0.042,
RSRC2 (UniProt Q7L4I2),inactive: 0.015,inactive: 0.049,inactive: -0.125,inactive: -0.048,inactive: -0.004,inactive: -0.016,inactive: -0.005,inactive: 0.024,inactive: 0.033,inactive: 0.066,inactive: 0.048,inactive: 0.034,inactive: -0.021,inactive: 0.011,inactive: -0.055,inactive: -0.002,inactive: -0.102,inactive: 0.005,inactive: 0.022,
RSF1 (UniProt Q96T23),inactive: 0,inactive: -0.209,inactive: 0.035,active: -0.407,inactive: 0.026,inactive: 0.048,inactive: 0.029,inactive: -0.086,inactive: 0.267,inactive: -0.078,inactive: -0.147,inactive: -0.018,inactive: 0.004,inactive: 0.114,inactive: 0.181,inactive: 0.023,inactive: -0.067,inactive: 0.037,inactive: -0.17,
SAMD4B (UniProt Q5PRF9),inactive: -0.349,inactive: -0.036,inactive: -0.132,,,inactive: 0.096,,,inactive: 0.075,inactive: 0.139,,inactive: 0.14,inactive: -0.036,inactive: -0.044,inactive: 0.167,inactive: 0.072,,inactive: 0.146,,
SDCBP (UniProt O00560),inactive: -0.012,inactive: 0.021,inactive: 0.007,inactive: 0.042,inactive: 0.117,active: -0.541,inactive: 0.06,inactive: -0.001,inactive: -0.022,inactive: -0.154,inactive: 0.101,inactive: -0.152,inactive: 0.005,inactive: -0.05,inactive: 0.025,inactive: 0.1,inactive: -0.04,inactive: -0.043,inactive: -0.022,
SDCBP isoform 2 (UniProt O00560),inactive: -0.175,inactive: 0.042,inactive: 0.115,,inactive: -0.036,active: -0.756,inactive: 0.032,,,inactive: -0.08,,inactive: 0.045,inactive: -0.04,inactive: 0.228,inactive: -0.301,,inactive: -0.236,inactive: -0.054,inactive: 0.034,
SDHC (UniProt Q99643),inactive: 0.074,inactive: -0.201,inactive: 0.04,inactive: -0.062,inactive: -0.012,inactive: -0.159,inactive: 0.029,inactive: 0.159,inactive: 0.088,inactive: 0.088,inactive: -0.238,inactive: -0.107,inactive: -0.081,inactive: -0.006,inactive: -0.134,inactive: 0.094,inactive: 0.023,inactive: 0.042,inactive: 0.04,
SEC24A (UniProt O95486),inactive: 0.002,inactive: -0.055,inactive: 0.032,inactive: -0.013,inactive: 0.002,inactive: -0.033,inactive: 0.091,inactive: -0.009,inactive: 0.029,inactive: -0.083,inactive: -0.087,inactive: -0.004,inactive: -0.021,inactive: -0.077,inactive: 0.03,inactive: 0.033,inactive: -0.002,inactive: -0.028,inactive: -0.016,
RRP12 (UniProt Q5JTH9),inactive: -0.024,inactive: -0.118,inactive: -0.057,inactive: -0.006,inactive: 0.183,inactive: -0.005,inactive: 0.138,inactive: 0.076,inactive: -0.03,inactive: 0.288,inactive: 0.032,inactive: 0.222,inactive: -0.128,inactive: 0.032,inactive: 0.125,inactive: -0.046,inactive: 0.204,inactive: -0.104,inactive: -0.222,
SDC3 (UniProt O75056),inactive: -0.251,inactive: -0.074,,inactive: -0.004,inactive: -0.513,inactive: 0.036,inactive: 0.125,inactive: 0.034,,inactive: 0.081,inactive: 0.166,,,inactive: -0.674,inactive: 0.163,inactive: -0.045,,inactive: 0.115,,
RUNX1 isoform 8 (UniProt Q01196),inactive: -0.025,inactive: -0.132,inactive: -0.046,inactive: 0.01,inactive: 0.024,inactive: 0.014,inactive: 0.183,inactive: 0.047,inactive: -0.055,inactive: -0.084,inactive: 0.075,inactive: 0.053,inactive: -0.001,inactive: 0.24,,,inactive: -0.292,inactive: -0.074,inactive: -0.011,
RTN4 isoform 5 (UniProt Q9NQC3),inactive: 0.05,,inactive: 0.169,inactive: -0.085,inactive: 0.078,inactive: 0.033,inactive: -0.259,inactive: 0.077,inactive: -0.095,,inactive: 0.027,inactive: -0.049,inactive: 0.01,inactive: -0.03,inactive: 0.064,inactive: 0.027,,inactive: 0.09,,inactive: -0.06
SCO2 (UniProt O43819),inactive: 0.034,inactive: 0.087,inactive: -0.042,inactive: 0.017,inactive: 0.087,inactive: -0.004,inactive: 0.003,inactive: -0.124,inactive: -0.078,inactive: 0.039,inactive: -0.099,inactive: -0.097,inactive: 0,inactive: -0.015,inactive: 0.016,inactive: 0.057,inactive: -0.103,,inactive: 0.117,
RSRC1 (UniProt Q96IZ7),inactive: 0.04,inactive: 0.042,active: -0.215,inactive: -0.018,inactive: -0.04,inactive: -0.004,inactive: 0.023,inactive: 0.052,inactive: 0.136,inactive: -0.003,inactive: -0.004,inactive: -0.024,inactive: 0.041,inactive: 0.101,inactive: 0.018,inactive: 0.033,inactive: -0.084,inactive: 0.024,inactive: 0.001,
RRP36 (UniProt Q96EU6),inactive: -0.021,inactive: -0.067,inactive: 0.073,inactive: 0.351,inactive: 0.057,inactive: 0.007,inactive: 0.092,inactive: 0.05,,inactive: 0.372,inactive: 0.203,inactive: 0.01,inactive: 0.088,inactive: -0.181,inactive: 0.17,inactive: -0.054,inactive: -0.217,inactive: -0.042,inactive: -0.268,
RRP1B (UniProt Q14684),inactive: 0.041,inactive: 0.125,inactive: 0.123,inactive: 0.137,inactive: -0.078,inactive: -0.323,inactive: 0.079,inactive: -0.008,inactive: 0.066,inactive: -0.036,,,,inactive: -0.186,inactive: 0.005,,inactive: -0.078,,inactive: -0.004,

# Some of the entries above, set out differently.
Target	log2 fold change [1]	log2 fold change [2]	log2 fold change [3]	log2 fold change [4]	log2 fold change [5]	log2 fold change [6]	log2 fold change [7]	log2 fold change [8]	log2 fold change [9]	log2 fold change [10]	log2 fold change [11]	log2 fold change [12]	log2 fold change [13]	log2 fold change [14]	log2 fold change [15]	log2 fold change [16]	log2 fold change [17]	log2 fold change [18]	log2 fold change [19]	log2 fold change [20]
SDC3 (UniProt O75056)	inactive: -0.251	inactive: -0.074		inactive: -0.004	inactive: -0.513	inactive: 0.036	inactive: 0.125	inactive: 0.034		inactive: 0.081	inactive: 0.166			inactive: -0.674	inactive: 0.163	inactive: -0.045		inactive: 0.115		
RUNX1 isoform 8 (UniProt Q01196)	inactive: -0.025	inactive: -0.132	inactive: -0.046	inactive: 0.01	inactive: 0.024	inactive: 0.014	inactive: 0.183	inactive: 0.047	inactive: -0.055	inactive: -0.084	inactive: 0.075	inactive: 0.053	inactive: -0.001	inactive: 0.24			inactive: -0.292	inactive: -0.074	inactive: -0.011	
